PubChem BioAssay AID1259308, NCATS | 2017

- Assay: 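Knock-downs that increase output of a recombinant reporter protein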 (primary screen)
- Cells: human HEK293 embryonic kidney cells stably expressing firefly luciferase (HEK-CMV-Luc2-Hygro)
- Knock-down reagent: single siRNA against human genes, 0.8 pmol siRNA per well
- Timing: 72 h
- Detection: 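Luciferase light (ONE-Glo) measured on one replicate plate set and viability (CellTiter-Glo) on the other, scaled to a negative control siRNA, with robust z-scores and luciferase per cell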
- Direction: total luciferase, z-score and total luciferase, % of control: higher = more reporter protein produced; luciferase per cell, z-score: higher = more reporter output per viable cell; viable cells, % of control: higher = more viable cells
- Call rule: 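Active when the median/MAD z-score for overall luciferase is greater than 3; a gene was taken forward for validation with new siRNAs if at least two of its three siRNAs passed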
- Calls: active = raised luciferase; inactive = no rise
The deposit covers about 59,000 reagents; shown is a part drawn at random. In the full data, about 1,510 (2.6%) were called active. 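Calls use total luciferase alone and ignore viability, so some active siRNAs may act by altering cell number.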 Entries without a mark were called inactive. Reagents against one gene are numbered here.

gene symbol	reagent	total luciferase, z-score	total luciferase, % of control	luciferase per cell, z-score	viable cells, % of control
ASPM (assembly factor for spindle microtubules)	1	0.00422	82	0.177	87.4
ASPM (assembly factor for spindle microtubules)	2	-0.138	79.1	-0.342	96.8
ASPM (assembly factor for spindle microtubules)	3	3.19 (active)	145	1.83	100
FRA10AC1 (FRA10A associated CGG repeat 1)	1	0.56	93	0.548	90
FRA10AC1 (FRA10A associated CGG repeat 1)	2	1.23	106	0.974	92
FRA10AC1 (FRA10A associated CGG repeat 1)	3	-0.0254	81.4	0.0708	89.3
LRRC36 (leucine rich repeat containing 36)	1	1.52	112	0.946	97.6
LRRC36 (leucine rich repeat containing 36)	2	-1.13	59.4	-1.12	89
LRRC36 (leucine rich repeat containing 36)	3	-1.05	60.9	-0.709	82
SPATA46 (spermatogenesis associated 46)	1	2.57	133	2.7	73
SPATA46 (spermatogenesis associated 46)	2	0.916	100	1.44	76.5
SPATA46 (spermatogenesis associated 46)	3	-1.96	42.9	-1.05	63.2
MAN1B1 (mannosidase alpha class 1B member 1)	1	0.0428	82.7	-0.162	96.5
MAN1B1 (mannosidase alpha class 1B member 1)	2	-0.211	77.7	-0.285	93.6
MAN1B1 (mannosidase alpha class 1B member 1)	3	1.83	118	1.18	96.9
THAP4 (THAP domain containing 4)	1	0.392	89.7	-0.302	109
THAP4 (THAP domain containing 4)	2	0.74	96.6	0.382	97.6
THAP4 (THAP domain containing 4)	3	-1.22	57.6	-1.97	108
XPA (XPA, DNA damage recognition and repair factor)	1	1.9	120	1.79	83.5
XPA (XPA, DNA damage recognition and repair factor)	2	-2.09	40.3	-1.53	67.4
XPA (XPA, DNA damage recognition and repair factor)	3	-0.206	77.8	-0.584	101

Hits, of those listed so far:
gene symbol	reagent	total luciferase, z-score	total luciferase, % of control	luciferase per cell, z-score	viable cells, % of control
ASPM (assembly factor for spindle microtubules)	3	3.19 (active)	145	1.83	100

The results go on.
gene symbol	reagent	total luciferase, z-score	total luciferase, % of control	luciferase per cell, z-score	viable cells, % of control
ZNF257 (zinc finger protein 257)	1	-0.505	71.8	0.0111	80
ZNF257 (zinc finger protein 257)	2	-1.68	48.5	-1.38	78
ZNF257 (zinc finger protein 257)	3	-0.469	72.6	0.102	78.9
DNAJB8 (DnaJ heat shock protein family (Hsp40) member B8)	1	0.522	92.3	0.26	96.3
DNAJB8 (DnaJ heat shock protein family (Hsp40) member B8)	2	0.0659	83.2	-0.0379	93.9
DNAJB8 (DnaJ heat shock protein family (Hsp40) member B8)	3	-0.236	77.2	0.161	82.7
IL2RB (interleukin 2 receptor subunit beta)	1	-1.18	58.4	-1.77	104
IL2RB (interleukin 2 receptor subunit beta)	2	1.23	106	1.76	74.7
IL2RB (interleukin 2 receptor subunit beta)	3	0.863	99	0.728	91.4
ZFP36 (ZFP36 zinc finger CCCH-type)	1	1.61	114	0.967	98.7
ZFP36 (ZFP36 zinc finger CCCH-type)	2	-0.6	70	-0.144	81.2
ZFP36 (ZFP36 zinc finger CCCH-type)	3	0.0197	82.3	-0.532	106
NFIL3 (nuclear factor, interleukin 3 regulated)	1	0.595	93.7	0.793	85
NFIL3 (nuclear factor, interleukin 3 regulated)	2	1.52	112	2.51	64.7
NFIL3 (nuclear factor, interleukin 3 regulated)	3	2.14	124	1.71	88.7
IL21R (interleukin 21 receptor)	1	-0.312	75.7	-0.578	98.5
IL21R (interleukin 21 receptor)	2	-0.405	73.8	-0.864	104
IL21R (interleukin 21 receptor)	3	-0.0467	81	0.568	77.9
IRS4 (insulin receptor substrate 4)	1	-1.8	46.1	1.11	38.4
IRS4 (insulin receptor substrate 4)	2	-0.402	73.9	0.567	71.1
IRS4 (insulin receptor substrate 4)	3	-1.19	58.3	-1.33	92.4
HRAS (HRas proto-oncogene, GTPase)	1	-0.0762	80.4	-0.845	112
HRAS (HRas proto-oncogene, GTPase)	2	1.22	106	0.948	92.4
HRAS (HRas proto-oncogene, GTPase)	3	-1.62	49.7	-2.11	96.6
ABCA16P (ATP binding cassette subfamily A member 16, pseudogene)	1	-1.67	48.7	-1.58	82.5
ABCA16P (ATP binding cassette subfamily A member 16, pseudogene)	2	-0.373	74.5	-0.104	85.5
ABCA16P (ATP binding cassette subfamily A member 16, pseudogene)	3	0.384	89.5	0.254	93.6
CYP11B1 (cytochrome P450 family 11 subfamily B member 1)	1	2	122	1.76	85.5
CYP11B1 (cytochrome P450 family 11 subfamily B member 1)	2	0.436	90.6	0.00334	101
CYP11B1 (cytochrome P450 family 11 subfamily B member 1)	3	-1.32	55.7	-1.88	102
PTGES (prostaglandin E synthase)	1	1.86	119	1.92	80.1
PTGES (prostaglandin E synthase)	2	0.483	91.5	0.543	88.6
PTGES (prostaglandin E synthase)	3	-0.176	78.4	-0.292	94.6
RTL4 (retrotransposon Gag like 4)	1	-1.33	55.5	-1.31	87.5
RTL4 (retrotransposon Gag like 4)	2	2.34	129	1.87	87.8
RTL4 (retrotransposon Gag like 4)	3	-0.998	62	-1.09	92.3
